Patent publication US11634451B2, “Method for the site-specific enzymatic labelling of nucleic acids in vitro by incorporation of unnatural nucleotides” (The Scripps Research Institute, priority 2013, dated 2023)

Assay: Post-amplification biotin labeling of DNA analyzed via streptavidin gel shift
[1] = FIG. 6A, unnatural base pair centrally located in 134-mer, NHS-PEG4-biotin, streptavidin gel shift
[2] = FIG. 6B, unnatural base pair at the eleventh position (primer 3)
[3] = FIG. 6B, unnatural base pair at the first position (primer 1)
[4] = FIG. 6B, unnatural base pair at the ninth position (primer 2)

SMILES	labeling efficiency [1] [%]	labeling efficiency [2] [%]	labeling efficiency [3] [%]	labeling efficiency [4] [%]	coupling efficiency with NHS-ester biotin (DNA prepared by PCR amplification) [%]	conversion of the phosphorothioate bond to the functionalized derivative (iodoacetyl-PEG2-biotin, streptavidin gel shift assay)
COc1cc2ccccc2cc1[C@H]1C[C@H](O)[C@@H](COP(=O)(O)OP(=O)(O)OP(=O)(O)O)O1.Cc1ccc2c(=S)n([C@H]3C[C@H](O)[C@@H](COP(=O)(O)OP(=O)(O)OP(=O)(O)O)O3)cc(C#CCNC(=O)C(Cl)Cl)c2c1 [d5SICSPA-dNaM, reference compound]	72	56	6	84	–	–
Cc1ccc2c(=S)n([C@H]3C[C@H](O)[C@@H](CO)O3)cc(C#CCN)c2c1 [d5SICS^A]	–	–	–	–	70	–
Cc1ccc2c(=S)n([C@H]3C[C@H](O)[C@@H](COP(O)(=S)OP(=O)(O)OP(=O)(O)O)O3)ccc2c1 (stereo partly shown) [d(5SICS-αS)TP]	–	–	–	–	–	60-70%
COc1cc2ccccc2cc1C1CC(O)C(CO)O1.O=C(NCC#Cc1cn(C2CC(O)C(CO)O2)c(=S)c2sccc12)C(Cl)Cl (stereo not shown) [dTPT3PA-dNaM]	80	81	72	94	–	–
